Data as given in PubChem BioAssay (NCATS).
Values joined by “and” are separate entries in the source; they are usually repeats but may differ in a detail not shown here. Equal entries are not always repeated. The shares of active, inactive and inconclusive entries below differ from those in the screen. For some of these results: Potencies of inconclusive entries are doubtful fits and often do not repeat. Active and inactive are the calls of the source. Calls follow the shape of the dose curve; as a rule, active = well fitted curve in the direction sought with a large enough effect; inconclusive = small, poorly fitted or top-dose-only effect, or another doubt; inactive = no such curve, though single readings can be large; an effect the other way counts as inactive or inconclusive.

Experiments:
[1] = Cell Proliferation Assay against the TMD8 Cell Line (Caspase readout at 16 hrs) (AID 651712); conditions: TMD8 lymphoma cells, caspase activation luminescence; caspase activation: at 46.1 µM (top of the series); also: potency is read from the fitted curve at half-maximal effect
How it was run: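 Caspase-Glo luminescence after 16 h compound exposure of TMD8 cells, 37 °C, 5% CO2. Medium: RPMI without phenol red, 5% FBS. Normalisation: DMSO = 0%, bortezomib 9.2 uM final = 100%.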

[2] = Identifying Small Molecule Inhibitors of Pancreatic Cancer Stem Cells (A2780, Spheroid) (AID 1259357); conditions: Potency: A2780 spheroid viability; viability (percent of control): at 46.1 µM (top of the series);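 also: compound exposure lasted 48 h before the ATP luminescence read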; also: potency is read from the fitted curve at half-maximal effect;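 as to viability (percent of control): 100% = DMSO treated cells and 0% = wells without cells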
How it was run: (§1)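 Endpoint: ATP-based luminescence, 48 h drug exposure. Bortezomib at 9.2 uM final as full-kill control; DMSO vehicle as negative control; activity normalized between vehicle and cell-free wells.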

[3] = Identifying Small Molecule Inhibitors of Pancreatic Cancer Stem Cells (SN12C, Spheroid) (AID 1259360); conditions: Potency: SN12C spheroid viability; also: potency is read from the fitted curve at half-maximal effect;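 as to viability (% of control): 100% = DMSO-treated cells and 0% = wells without cells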
How it was run: as §1

[4] = Identifying Small Molecule Inhibitors of Pancreatic Cancer Stem Cells (A278, Adherent) (AID 1259361); also: nearly all actives have a fitted effect of over 35% in size;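 as to viability (% of control): 100% = DMSO-treated cells and 0% = cell-free media-only wells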
How it was run: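 Spheroids grown 14 days in stem cell media on hydrogel-coated nonadherent plates; 2D lines seeded directly. Compounds added after 4 h attachment, 48 h at 37C, 5% CO2; CellTiter-Glo luminescence normalized to DMSO (no inhibition) and no-cell wells (full inhibition).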

[5] = Identifying Small Molecule Inhibitors of Pancreatic Cancer Stem Cells (Panc1, Adherent) (AID 1259362); conditions: Potency: viability unless noted; viability, % of control: at 46.1 µM (top of the series) unless noted; also: potency is read from the fitted curve at half-maximal effect;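 as to viability, % of control: compound exposure lasted 48 h before the viability read; plate controls were DMSO-treated cells for no effect and cell-free media wells for full effect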
How it was run: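 Cytotoxicity read by CellTiter-Glo luminescence after 48 h compound exposure at 37C; percent activity scaled between DMSO-treated cells and cell-free wells. Spheroid formats used cells pre-formed 14 days in stem cell media on hydrogel.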

[6] = P-glycoprotein substrates identified in KB-8-5-11 adenocarcinoma cell line, qHTS therapeutic library screen (AID 1346987); also: potency is read from the fitted curve at half-maximal effect; nearly all actives have a fitted effect of over 65% in size
How it was run: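 Compounds are pinned in dose-response onto KB-8-5-11 cells (500 cells/well, colchicine-free medium) and left 72 h at 37 degree C. CellTiter-Glo luminescence then yields AC50 values.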

[7] = qHTS of pediatric cancer cell lines to identify multiple opportunities for drug repurposing: Primary screen for BT-12 cells (AID 1347101); also: potency is read from the fitted curve at half-maximal effect; nearly all actives have a fitted effect of over 25% in size
How it was run: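 Cells (500-1,000/well) rested 5 h, then received compounds for 48 h; metabolically active cells were measured by CellTiter-Glo luminescence. Final concentrations spanned up to 46 µM (MIPE, 11-point) or 0.59 nM-46 µM (NPC, 8-point) in primary screens, 11-point in follow-ups.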

[8] = qHTS of pediatric cancer cell lines to identify multiple opportunities for drug repurposing: Primary screen for Rh41 cells (AID 1347108); also: nearly all actives have a fitted effect of over 70% in size; also: potency is read from the fitted curve at half-maximal effect
How it was run: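 Primary screen of approved and investigational compounds on cells in growth media at 37 degrees C, 5% CO2. MIPE set at 11-point and NPC set at 8-point dilutions; viability scored by ATP-based luminescence at 48 hours.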

CRL-7250 = normal cell line; assay: Cytotoxic Profiling of Annotated Libraries Using Quantitative High-Throughput Screening (AID 1296008); conditions: Five cell lines viability, CellTiter-Glo ATP luminescence, 48-72 h; max response: active compounds read low; also: nearly all actives have a fitted effect of over 60% in size; also: potency is read from the fitted curve at half-maximal effect; as to max response: % is scaled to controls: 0 for no effect and ±100 for the full control effect
How it was run: (§2)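 Cells exposed to compounds for 48 or 72 hr at 37 degrees Celsius. Viability read as ATP-coupled luminescence with CellTiter-Glo after 10 min at room temperature.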

[9] = qHTS of pediatric cancer cell lines to identify multiple opportunities for drug repurposing: Primary screen for Rh18 cells (AID 1347102); also: potency is read from the fitted curve at half-maximal effect; nearly all actives have a fitted effect of over 65% in size
How it was run: (§3)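 Viability after 48 h compound treatment at 37C, 500-1,000 cells/well, read as ATP luminescence with CellTiter-Glo. Primary screens used 11-point (MIPE, 0.78 nM-46 µM) or 8-point (NPC, 0.59 nM-46 µM) final concentrations; follow-up screens used 11-point dilutions.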

[10] = Quantitative High-Throughput drug screen in 47 multiple myeloma cell lines against the NCATS MIPE library collection: JIM1_ECACC cell viability assay (AID 1918964; also: potency is read from the fitted curve at half-maximal effect)
How it was run: (§4)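 Approved and investigational drugs from MIPE 4.0 were added by pin tool to 500 cells per well. After 48 hours at 37C, ATP-based CellTiter-Glo luminescence indicated remaining viability.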

[11] = Quantitative High-Throughput drug screen in 47 multiple myeloma cell lines against the NCATS MIPE library collection: KMS20_JCRB cell viability assay (AID 1918973); conditions: CellTiter-Glo ATP, 48 h; viability (% of DMSO): at 45.8 µM (top of the series); also: potency is read from the fitted curve at half-maximal effect; nearly all actives have a fitted effect of over 45% in size
How it was run: as §4

[12] = Quantitative High-Throughput drug screen in 47 multiple myeloma cell lines against the NCATS MIPE library collection: KMS21BM_JCRB cell viability assay (AID 1918974); conditions: ATP luminescence, 48 h; viability: at 45.8 µM (top of the series); also: potency is read from the fitted curve at half-maximal effect
How it was run: as §4

[13] = Quantitative High-Throughput drug screen in 47 multiple myeloma cell lines against the NCATS MIPE library collection: MOLP8_DSMZ cell viability assay (AID 1918977); conditions: MOLP8 myeloma viability, CellTiter-Glo ATP luminescence, 48 h; viability (% of control): at 45.8 µM (top of the series); also: potency is read from the fitted curve at half-maximal effect; nearly all actives have a fitted effect of over 45% in size
How it was run: (§5)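 Cells were exposed to library compounds for 48 hours, after which ATP was measured by CellTiter-Glo. Signal was taken as median relative luminescence units.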

[14] = Quantitative High-Throughput drug screen in 47 multiple myeloma cell lines against the NCATS MIPE library collection: LP1_DSMZ cell viability assay (AID 1918982); also: nearly all actives have a fitted effect of over 35% in size; also: potency is read from the fitted curve at half-maximal effect
How it was run: as §5

[15] = Quantitative High-Throughput drug screen in 47 multiple myeloma cell lines against the NCATS MIPE library collection: L363_DSMZ cell viability assay (AID 1918984); conditions: L363 myeloma viability, CellTiter-Glo ATP luminescence, 48 h; viability (% of control): at 45.8 µM (top of the series); also: nearly all actives have a fitted effect of over 40% in size; also: potency is read from the fitted curve at half-maximal effect
How it was run: as §5

HEK293 = assay: Cytotoxic Profiling of Annotated Libraries Using Quantitative High-Throughput Screening (AID 1296008); conditions: Five cell lines viability, CellTiter-Glo ATP luminescence, 48-72 h; max response: active compounds read low; also: nearly all actives have a fitted effect of over 60% in size; also: potency is read from the fitted curve at half-maximal effect; as to max response: % is scaled to controls: 0 for no effect and ±100 for the full control effect
How it was run: as §2

[16] = qHTS of pediatric cancer cell lines to identify multiple opportunities for drug repurposing: Primary screen for Rh30 cells (AID 1347107); also: potency is read from the fitted curve at half-maximal effect; nearly all actives have a fitted effect of over 75% in size
How it was run: as §3

[17] = Identifying Small Molecule Inhibitors of Pancreatic Cancer Stem Cells (Panc1, Spheroid) (AID 1259359); conditions: Panc1 spheroid cancer stem cell viability; viability, % of control: at 46.1 µM (top of the series) unless noted;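 also: compound exposure lasted 48 h before reading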
How it was run: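 Spheroids grown 14 days in stem cell media on nonadherent hydrogel before screening; cells attached 4 h, then compound exposure 48 h at 37C, 5% CO2. CellTiter-Glo luminescence normalized to DMSO (no inhibition) and no-cell wells (full inhibition).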

[18] = Cell Proliferation Assay against the TMD8 Cell Line (Caspase readout at 8 hrs) (AID 651713); conditions: TMD8 lymphoma cells, caspase activation luminescence; caspase activation: at 46.1 µM (top of the series);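 also: 0% = DMSO and 100% = 9.2 µM bortezomib caspase signal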
How it was run: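 Apoptosis read-out: Caspase-Glo luminescence after 8 h compound exposure of TMD8 lymphoma cells at 37C, 5% CO2. Signals were normalized as percent activity between DMSO and bortezomib (9.2 uM final) controls.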

CC(=O)O[C@@]12CO[C@@H]1C[C@H](O)[C@@]1(C)C(=O)[C@H](O)C3=C(C)[C@@H](OC(=O)[C@H](O)[C@@H](NC(=O)OC(C)(C)C)c4ccccc4)C[C@@](O)([C@@H](OC(=O)c4ccccc4)[C@H]21)C3(C)C
inconclusive: Potency [5] 0.0037 µM [cytotoxic, full curve, poor fit] | Potency [7] 0.0049 µM [cytotoxic, full curve, poor fit] | Potency [8] 0.0038 µM [cytotoxic, full curve] | Potency (CRL-7250) 7.5 nM [inhibitor, full curve]
inactive: Potency [2] | Potency [3] | IC50 (viability decrease) [4]
active: Potency [1] 37.2 µM | Potency [6] 6.51 µM and 4.11 µM

Cc1cc(Nc2nc(N[C@@H](C)c3ncc(F)cn3)ncc2Cl)n[nH]1
active: Potency [6] 16.6 µM and 1.03 µM | Potency [7] 34.3 µM | Potency [8] 9.35 µM | Potency (HEK293) 7.31 µM
inactive: Potency [3] | IC50 (viability decrease) [4]
inconclusive: viability (percent of control) [2] 78% | viability, % of control [5] 78.8% | Potency [9] 37.2 µM [cytotoxic, single point] | Potency [10] 0.0015 µM [rising, full curve, poor fit] | Potency [11] 11.8 µM [cytotoxic, partial curve, poor fit] | Potency [12] 1.48 µM [rising, full curve, poor fit] | Potency [13] 13.2 µM [cytotoxic, partial curve, poor fit] | Potency [14] 26.4 µM [cytotoxic, single point] | Potency [15] 0.0033 µM [rising, full curve, poor fit]

CC(=O)Nc1sc2c(c1-c1nc3ccccc3s1)CNC2
active: Potency [6] 16.6 µM and 13 µM | Potency (HEK293) 11.8 µM
inconclusive: Potency [1] 33.2 µM [activator, single point] | Potency [2] 0.0033 µM [rising, full curve, poor fit] | Potency [3] 0.0166 µM [rising, full curve, poor fit] | IC50 (viability decrease) [4] 33.2 µM [cytotoxic, single point] | Potency [5] 20.9 µM [cytotoxic, partial curve, poor fit] | Potency [7] 6.85 µM [cytotoxic, partial curve] | Potency [9] 23.5 µM [cytotoxic, single point] | Potency [16] 8.33 µM [cytotoxic, partial curve] | Potency [8] 18.7 µM [cytotoxic, partial curve] | Potency [10] 0.0012 µM [cytotoxic, full curve, poor fit] | Potency [12] 1.32 µM [cytotoxic, partial curve, poor fit] | Potency [15] 11.8 µM [cytotoxic, single point] | Potency (CRL-7250) 18.7 µM [inhibitor, partial curve] and 16.4 µM [inhibitor, single point]

O=C(O)CC/C=C\CC[C@H]1[C@@H](N2CCCCC2)[C@@H](O)C[C@@H]1OCc1ccc(-c2ccccc2)cc1
inconclusive: viability (percent of control) [2] 114%
inactive: Potency [17] | IC50 (viability decrease) [4]

CCN(CC)CCn1c(=O)c(Cc2ccc(OC)cc2)nc2ccccc21
inactive: Potency [18] | Potency [3] | IC50 (viability decrease) [4] | Potency [8] | Potency [10] | Potency [15] | max response (CRL-7250) -4.28% | max response (HEK293) -12.9%
inconclusive: viability (percent of control) [2] 72.2% | Potency [5] 0.0662 µM [cytotoxic, full curve, poor fit] | Potency [11] 33.2 µM [cytotoxic, single point] | Potency [12] 0.0296 µM [cytotoxic, full curve, poor fit] | Potency [13] 0.132 µM [rising, full curve, poor fit]

O=S(=O)(N=Cc1c(O)ccc2ccccc12)c1cccs1
active: Potency [8] 3.72 µM
inactive: IC50 (viability decrease) [4] | Potency [10] | Potency [14]
inconclusive: Potency [1] 29.6 µM [activator, single point] | viability (percent of control) [2] 106% | viability, % of control [17] 110% | Potency [7] 34.3 µM [cytotoxic, single point] | Potency [12] 0.296 µM [rising, full curve, poor fit] | Potency [13] 3.32 µM [rising, partial curve, poor fit] | Potency [15] 10.5 µM [cytotoxic, partial curve, poor fit] | Potency (HEK293) 29.6 µM [inhibitor, single point]
